Experimental data published in PMC6212790, “How bacterial xenogeneic silencer rok distinguishes foreign from self DNA in its resident genome” (Nucleic Acids Research, 2018).
No constants are given. Whether binding was seen depends on the method and setting.

Target: Rok-C^97-191 (C-terminal DNA binding domain of Rok, residues 97-191) (B. subtilis subsp. subtilis str. 168) (UniProt O34857)
Assay: SEC; gel filtration on a GE HiLoad 16/600 Superdex 75 preparation grade column; elution volumes compared with cytochrome C (12.4 kD) and the void volume; both purified

binding: no binding
B1: Rok-C^97-191 (C-terminal DNA binding domain of Rok, residues 97-191) (domain or fragment, UniProt O34857 97-191)
chain: AGIPDGTTRRRRGTARPGSKAAKLREAAIKTLKRHNAAIKSSELQKEIEKESGLEIPNMTTFMQSLIKMYPEVKKPYRGQYILEGEIESAESANE
